In the test the target is PG0352, dual domain sialidase of Porphyromonas gingivalis W83 (Porphyromonas gingivalis W83) (UniProt Q7MX62). Put plainly: SEC; Ni-NTA purified PG0352 dialysed in 50 mM Tris, 150 mM NaCl, pH 7.0, on Superdex 200; single large peak, estimated MW 52 kDa; both purified.

These are yes or no findings as the source states them, for the method shown.

B1: PG0352, dual domain sialidase of Porphyromonas gingivalis W83 (enzyme, UniProt Q7MX62 31-526)
chain: QEVTMWGDSHGVAPNQVRRTLVKVALSESLPPGAKQIRIGFSLPKETEEKVTALYLLVSDSLAVRDLPDYKGRVSYDSFPISKEDRTTALSADSVAGRRFFYLAADIGPVASFSRSDTLTARVEEVAVDGRPLPLKELSPASRRLYRGYEALFVPGDGGSRNYRIPAILKTANGTLIAMADRRKYNQTDLPEDIDIVMRRSTDGGKSWSDPRIIVQGEGRNHGFGDVALVQTQAGKLLMIFVGGVGLWQSTPDRPQRTYISESRDEGLTWSPPRDITHFIFGKDCADPGRSRWLASFCASGQGLVLPSGRITFVAAIRESGQEYVLNNYVLYSDDEGDTWQLSDCAYRRGDEAKLSLMPDGRVLMSIRNQGRQESRQRFFALSSDDGLTWERAKQFEGIHDPGCNGAMLQVKRNGRDQVLHSLPLGPDGRRDGAVYLFDHVSGRWSAPVVVNSGSSAYSDMTLLADGTIGYFVEEGDEISLVFIRFVLDDLFDVRQ
For B1, the binding result is given as “no binding”.

Values taken from publication PMC10553830, “Functional and structural analyses reveal that a dual domain sialidase protects bacteria from complement killing through desialylation of complement factors” (PLOS Pathogens, 2023).
